No constants are given. Whether binding was seen depends on the method and setting. Binding seen in cells or lysates may run through a third protein. Some results given as binding are weak or reduced against the parent protein; the word gives no strength.
B1: Hectd3 (endogenous, mouse CD4+ T cells) (enzyme, UniProt Q3U487 1-861)
chain: MAGPGPGAALESPRQLLGRVRFLAEAARSLRAGLPLPAALAFVPREVLYKLYKDPAGPSRVLLPVWEAEGLGLRVGAVGAAPGTGSGPLRAARDSIELRRGACVRTTGEELCNGHGLWVKLTKEQLAEHLSDCSLDEGWLLVCRPAEGGARLVPIDTPDHLQRQQQLFGVDYRPVLRWEQVVDLTYSHRLGSRPQPAEAYTEAIQRLLYVPPTWTYECDEDLIHFLYDHLGKEDENLGSVKQYVESIDVSSYTEEFNVSCLTDSNADTYWESDGSQCQHWVRLTMKKGTIVKKLLLTVDTTDDNFMPKRVVVYGGEGDNLKKLSDVNIDETLIGDVCVLEDMTVHLPIIEIRIVECRDDGIDVRLRGVKIKSSRQRELGLNADLFQPASLVRYPRLEGTDPEVLYRRAVLLQRFIKILDSVLHHLVPAWDHTLGTFSEIKQVKQFLLLSRQRPSLVAQCLRDSESSKPSFMPRLYINRRLAMEHRACPSRDPACKNAVFTQVYEGLKPSDKYEKPLDYRWPMRYDQWWECKFIAEGIIDQGGGFRDSLADMSEELCPSSADTPVPLPFFVRTANQGNGTGEARDMYVPNPSCRDFAKYEWIGQLMGAALRGKEFLVLALPGFVWKQLSGEEVSWSKDFPAVDSVLVKLLEVMEGVDKETFEFKFGKELTFTTVLSDQQVVELIPGGTGIVVEYEDRSRFIQLVRKARLEESKEQVAAMQAGLLKVVPQAVLDLLTWQELEKKVCGDPEVTVDALRKLTRFEDFEPSDTRVQYFWEALNNFTNEDRSRFLRFVTGRSRLPARIYIYPDKLGYETTDALPESSTCSSTLFLPHYASAKVCEEKLRYAAYNCVAIDTDMSPWEE
B2: Xpress-Hectd3 (enzyme, UniProt Q3U487 1-861)
chain: B1 chain
B3: CARMA1 (endogenous, Jurkat T cells) (protein, UniProt Q9BXL7 1-1154)
chain: MPGGGPEMDDYMETLKDEEDALWENVECNRHMLSRYINPAKLTPYLRQCKVIDEQDEDEVLNAPMLPSKINRAGRLLDILHTKGQRGYVVFLESLEFYYPELYKLVTGKEPTRRFSTIVVEEGHEGLTHFLMNEVIKLQQQMKAKDLQRCELLARLRQLEDEKKQMTLTRVELLTFQERYYKMKEERDSYNDELVKVKDDNYNLAMRYAQLSEEKNMAVMRSRDLQLEIDQLKHRLNKMEEECKLERNQSLKLKNDIENRPKKEQVLELERENEMLKTKNQELQSIIQAGKRSLPDSDKAILDILEHDRKEALEDRQELVNRIYNLQEEARQAEELRDKYLEEKEDLELKCSTLGKDCEMYKHRMNTVMLQLEEVERERDQAFHSRDEAQTQYSQCLIEKDKYRKQIRELEEKNDEMRIEMVRREACIVNLESKLRRLSKDSNNLDQSLPRNLPVTIISQDFGDASPRTNGQEADDSSTSEESPEDSKYFLPYHPPQRRMNLKGIQLQRAKSPISLKRTSDFQAKGHEEEGTDASPSSCGSLPITNSFTKMQPPRSRSSIMSITAEPPGNDSIVRRYKEDAPHRSTVEEDNDSGGFDALDLDDDSHERYSFGPSSIHSSSSSHQSEGLDAYDLEQVNLMFRKFSLERPFRPSVTSVGHVRGPGPSVQHTTLNGDSLTSQLTLLGGNARGSFVHSVKPGSLAEKAGLREGHQLLLLEGCIRGERQSVPLDTCTKEEAHWTIQRCSGPVTLHYKVNHEGYRKLVKDMEDGLITSGDSFYIRLNLNISSQLDACTMSLKCDDVVHVRDTMYQDRHEWLCARVDPFTDHDLDMGTIPSYSRAQQLLLVKLQRLMHRGSREEVDGTHHTLRALRNTLQPEEALSTSDPRVSPRLSRASFLFGQLLQFVSRSENKYKRMNSNERVRIISGSPLGSLARSSLDATKLLTEKQEELDPESELGKNLSLIPYSLVRAFYCERRRPVLFTPTVLAKTLVQRLLNSGGAMEFTICKSDIVTRDEFLRRQKTETIIYSREKNPNAFECIAPANIEAVAAKNKHCLLEAGIGCTRDLIKSNIYPIVLFIRVCEKNIKRFRKLLPRPETEEEFLRVCRLKEKELEALPCLYATVEPDMWGSVEELLRVVKDKIGEEQRKTIWVDEDQL
B4: BCL10 (endogenous, Jurkat T cells) (protein, UniProt O95999 1-233)
chain: MEPTAPSLTEEDLTEVKKDALENLRVYLCEKIIAERHFDHLRAKKILSREDTEEISCRTSSRKRAGKLLDYLQENPKGLDTLVESIRREKTQNFLIQKITDEVLKLRNIKLEHLKGLKCSSCEPFPDGATNNLSRSNSDESNFSEKLRASTVMYHPEGESSTTPFFSTNSSLNLPVLEVGRTENTIFSSTTLPRPGDPGAPPLPPDLQLEEEGTCANSSEMFLPLRSRTVSRQ

By UniProt entry, the sequences of proteins in these tests, tags left out. Where a name states a change or a piece, a line headed by the entry shows the natural chain unless it says otherwise.
UniProt Q2TBA3: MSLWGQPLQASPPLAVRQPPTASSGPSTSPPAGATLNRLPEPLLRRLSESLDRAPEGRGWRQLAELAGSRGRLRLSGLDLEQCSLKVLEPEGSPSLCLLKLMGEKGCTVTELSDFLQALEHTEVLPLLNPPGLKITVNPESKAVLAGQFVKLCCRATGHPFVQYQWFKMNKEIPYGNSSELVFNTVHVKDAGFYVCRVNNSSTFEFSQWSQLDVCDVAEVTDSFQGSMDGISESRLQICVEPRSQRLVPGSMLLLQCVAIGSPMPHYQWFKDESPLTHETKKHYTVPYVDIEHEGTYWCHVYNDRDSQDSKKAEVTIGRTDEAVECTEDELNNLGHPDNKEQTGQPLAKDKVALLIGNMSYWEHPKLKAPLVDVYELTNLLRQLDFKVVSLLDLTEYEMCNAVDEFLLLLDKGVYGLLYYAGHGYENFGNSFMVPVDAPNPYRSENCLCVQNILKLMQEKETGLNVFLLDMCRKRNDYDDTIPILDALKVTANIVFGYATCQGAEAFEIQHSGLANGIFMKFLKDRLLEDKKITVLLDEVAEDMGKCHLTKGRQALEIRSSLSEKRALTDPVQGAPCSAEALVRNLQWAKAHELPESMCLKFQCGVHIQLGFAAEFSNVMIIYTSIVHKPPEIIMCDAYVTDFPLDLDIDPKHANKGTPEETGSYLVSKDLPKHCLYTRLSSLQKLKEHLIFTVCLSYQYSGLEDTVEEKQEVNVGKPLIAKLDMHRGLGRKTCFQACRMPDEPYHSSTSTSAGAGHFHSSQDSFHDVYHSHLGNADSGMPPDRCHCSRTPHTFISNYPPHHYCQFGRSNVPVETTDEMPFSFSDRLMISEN
UniProt P42227: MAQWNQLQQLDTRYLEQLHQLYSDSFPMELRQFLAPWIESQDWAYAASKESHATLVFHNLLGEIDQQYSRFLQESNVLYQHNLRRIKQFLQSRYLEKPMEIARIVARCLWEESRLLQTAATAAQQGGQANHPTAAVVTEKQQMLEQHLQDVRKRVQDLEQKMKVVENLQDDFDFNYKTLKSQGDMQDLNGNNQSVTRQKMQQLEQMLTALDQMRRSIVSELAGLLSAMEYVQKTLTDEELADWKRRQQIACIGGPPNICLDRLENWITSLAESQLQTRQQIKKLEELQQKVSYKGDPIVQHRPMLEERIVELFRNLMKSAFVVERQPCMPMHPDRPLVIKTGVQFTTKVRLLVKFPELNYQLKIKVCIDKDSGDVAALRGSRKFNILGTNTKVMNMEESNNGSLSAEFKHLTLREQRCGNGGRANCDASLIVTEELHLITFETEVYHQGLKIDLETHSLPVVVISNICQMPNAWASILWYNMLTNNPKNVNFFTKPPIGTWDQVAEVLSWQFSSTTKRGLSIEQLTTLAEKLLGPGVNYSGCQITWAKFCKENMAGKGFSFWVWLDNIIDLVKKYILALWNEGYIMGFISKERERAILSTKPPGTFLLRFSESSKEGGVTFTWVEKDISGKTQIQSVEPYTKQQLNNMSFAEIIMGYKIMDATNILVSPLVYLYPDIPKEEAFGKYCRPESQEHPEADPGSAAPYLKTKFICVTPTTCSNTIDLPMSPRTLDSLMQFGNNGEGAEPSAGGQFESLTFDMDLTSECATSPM
UniProt Q9UDY8: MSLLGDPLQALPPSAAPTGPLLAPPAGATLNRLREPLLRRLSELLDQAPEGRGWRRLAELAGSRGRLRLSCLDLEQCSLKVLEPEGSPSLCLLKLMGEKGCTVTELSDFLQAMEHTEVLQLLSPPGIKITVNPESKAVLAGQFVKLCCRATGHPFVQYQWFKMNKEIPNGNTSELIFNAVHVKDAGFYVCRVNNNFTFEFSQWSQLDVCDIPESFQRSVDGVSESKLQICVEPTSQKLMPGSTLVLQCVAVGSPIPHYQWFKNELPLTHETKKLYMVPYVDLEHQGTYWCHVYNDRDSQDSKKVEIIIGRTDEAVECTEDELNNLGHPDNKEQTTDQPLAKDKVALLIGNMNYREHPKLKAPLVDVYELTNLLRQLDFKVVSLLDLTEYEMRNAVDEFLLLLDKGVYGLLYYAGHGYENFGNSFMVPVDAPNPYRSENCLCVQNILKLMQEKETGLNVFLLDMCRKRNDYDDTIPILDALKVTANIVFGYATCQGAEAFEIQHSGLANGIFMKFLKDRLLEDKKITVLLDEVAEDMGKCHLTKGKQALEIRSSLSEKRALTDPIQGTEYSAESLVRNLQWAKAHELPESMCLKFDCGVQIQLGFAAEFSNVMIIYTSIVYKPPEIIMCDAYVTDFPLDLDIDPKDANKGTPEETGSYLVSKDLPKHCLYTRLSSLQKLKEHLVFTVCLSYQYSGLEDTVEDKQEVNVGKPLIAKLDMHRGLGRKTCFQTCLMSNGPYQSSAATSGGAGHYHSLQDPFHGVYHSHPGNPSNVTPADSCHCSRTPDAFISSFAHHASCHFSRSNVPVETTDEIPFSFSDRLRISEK

Key:
[1] = biological target: Malt1 (endogenous, mouse CD4+ T cells) (mouse (endogenous in primary CD4+ T cells)) (UniProt Q2TBA3); assay: co-IP; endogenous proteins; Malt1, Stat3 or IgG immunoprecipitation (Protein A Sepharose, washes in TD150 buffer with 150 mM NaCl) of total protein extracts from dLN CD4+ T cells of WT mice 13 days after EAE induction; for Stat3 also naive CD4+ T cells with or without IL-6
[2] = biological target: Stat3 (endogenous, mouse CD4+ T cells) (mouse (endogenous in primary CD4+ T cells)) (UniProt P42227); assay: as above
Flag-Stat3 (mouse) = Flag-Stat3 (mouse) (UniProt P42227); assay: co-IP; Flag or Xpress immunoprecipitation of protein extracts from HEK293T cells co-transfected with Flag-Stat3 and Xpress-Hectd3 constructs (HA-Ub co-transfected in Fig. 9a); immunoblot
[3] = biological target: MALT1 isoform A K648R with C-terminal Flag-Strep-Strep tag (UniProt Q9UDY8); assay: pull-down; StrepTactin pulldown (ST-PD) of StrepII-tagged MALT1A from lysates of reconstituted MALT1KO Jurkat T cells in co-IP buffer (25 mM HEPES pH 7.5, 150 mM NaCl, 0.2% NP-40), 4 °C overnight; western blot
[4] = biological target: MALT1 isoform A WT with C-terminal Flag-Strep-Strep tag (UniProt Q9UDY8); assay: as above

Row | Binder | binding [1] | binding [2] | binding (Flag-Stat3 (mouse)) | binding [3] | binding [4]
1 | B1 | binds | binds |  |  | 
2 | B2 |  |  | binds |  | 
3 | B3 |  |  |  | binds | binds
4 | B4 |  |  |  | binds | binds

— paper PMC6370850
